Results on 12 substances are retold here after patent publication US20260242759A1 (Vrije Universiteit Brussel, priority 2022, published 2026).

This data set in a line: general procedure: Fmoc solid-phase peptide synthesis; preloaded Fmoc-Leu-Wang resin (0.6-0.75 mmol/g), Rink Amide resin (0.92 mmol/g), 2-chlorotrityl chloride resin (0.8 mmol); HBTU/DIPEA (manual, Activo-P11); DIC/Oxyma (CEM Liberty Blue). As to conditions: whole synthesis, TFA salt.

Positions of bridges follow the written chain, without caps; N, C: chain ends. Non-standard residues stand in square brackets, D forms with d. Triazole bridges read from a SMILES are 1,4-linked. Lys(N3) = [N-]=[N+]=NCCCC[C@H](N)C(=O)O; Cha = N[C@@H](CC1CCCCC1)C(=O)O; Pra = C#CC[C@H](N)C(=O)O

Turning to “Ac-KKKFA[Pra]VKD[Lys(N3)]ILQLNLKEYNLV-OH (triazole 6-10; SMILES CC[C@H](C)[C@H](NC(=O)[C@@H]1CCCCn2cc(nn2)C[C@H](NC(=O)[C@H](C)NC(=O)[C@H](Cc2ccccc2)NC(=O)[C@H](CCCCN)NC(=O)[C@H](CCCCN)NC(=O)[C@H](CCCCN)NC(C)=O)C(=O)N[C@@H](C(C)C)C(=O)N[C@@H](CCCCN)C(=O)N[C@@H](CC(=O)O)C(=O)N1)C(=O)N[C@@H](CC(C)C)C(=O)N[C@@H](CCC(N)=O)C(=O)N[C@@H](CC(C)C)C(=O)N[C@@H](CC(N)=O)C(=O)N[C@@H](CC(C)C)C(=O)N[C@@H](CCCCN)C(=O)N[C@@H](CCC(=O)O)C(=O)N[C@@H](Cc1ccc(O)cc1)C(=O)N[C@@H](CC(N)=O)C(=O)N[C@@H](CC(C)C)C(=O)N[C@H](C(=O)O)C(C)C)”, the isolated yield came out at 12%. On to Ac-KKKFNDCKDIILQMNLREYNLV-OH, for which the isolated yield turned out to be 11%. The value for “Ac-KKKFN[Pra]CKD[Lys(N3)]ILQMNLREYN[Cha]V-OH (triazole 6-10; SMILES CC[C@H](C)[C@H](NC(=O)[C@@H]1CCCCn2cc(nn2)C[C@H](NC(=O)[C@H](CC(N)=O)NC(=O)[C@H](Cc2ccccc2)NC(=O)[C@H](CCCCN)NC(=O)[C@H](CCCCN)NC(=O)[C@H](CCCCN)NC(C)=O)C(=O)N[C@@H](CS)C(=O)N[C@@H](CCCCN)C(=O)N[C@@H](CC(=O)O)C(=O)N1)C(=O)N[C@@H](CC(C)C)C(=O)N[C@@H](CCC(N)=O)C(=O)N[C@@H](CCSC)C(=O)N[C@@H](CC(N)=O)C(=O)N[C@@H](CC(C)C)C(=O)N[C@@H](CCCNC(=N)N)C(=O)N[C@@H](CCC(=O)O)C(=O)N[C@@H](Cc1ccc(O)cc1)C(=O)N[C@@H](CC(N)=O)C(=O)N[C@@H](CC1CCCCC1)C(=O)N[C@H](C(=O)O)C(C)C)” was 11%. For Ac-KKKFAAVKDTILQLNLKEYNLV-OH, the isolated yield stood at 19%. Turning to “Ac-KKKFA[Pra]VKD[Lys(N3)]ILQLNLKEYN[Cha]V-OH (triazole 6-10; SMILES CC[C@H](C)[C@H](NC(=O)[C@@H]1CCCCn2cc(nn2)C[C@H](NC(=O)[C@H](C)NC(=O)[C@H](Cc2ccccc2)NC(=O)[C@H](CCCCN)NC(=O)[C@H](CCCCN)NC(=O)[C@H](CCCCN)NC(C)=O)C(=O)N[C@@H](C(C)C)C(=O)N[C@@H](CCCCN)C(=O)N[C@@H](CC(=O)O)C(=O)N1)C(=O)N[C@@H](CC(C)C)C(=O)N[C@@H](CCC(N)=O)C(=O)N[C@@H](CC(C)C)C(=O)N[C@@H](CC(N)=O)C(=O)N[C@@H](CC(C)C)C(=O)N[C@@H](CCCCN)C(=O)N[C@@H](CCC(=O)O)C(=O)N[C@@H](Cc1ccc(O)cc1)C(=O)N[C@@H](CC(N)=O)C(=O)N[C@@H](CC1CCCCC1)C(=O)N[C@H](C(=O)O)C(C)C)”, the isolated yield amounted to 33%. With “Ac-KKKFAAVKDTILQLNLKEYN[Cha]V-OH (SMILES CC[C@H](C)[C@H](NC(=O)[C@@H](NC(=O)[C@H](CC(=O)O)NC(=O)[C@H](CCCCN)NC(=O)[C@@H](NC(=O)[C@H](C)NC(=O)[C@H](C)NC(=O)[C@H](Cc1ccccc1)NC(=O)[C@H](CCCCN)NC(=O)[C@H](CCCCN)NC(=O)[C@H](CCCCN)NC(C)=O)C(C)C)[C@@H](C)O)C(=O)N[C@@H](CC(C)C)C(=O)N[C@@H](CCC(N)=O)C(=O)N[C@@H](CC(C)C)C(=O)N[C@@H](CC(N)=O)C(=O)N[C@@H](CC(C)C)C(=O)N[C@@H](CCCCN)C(=O)N[C@@H](CCC(=O)O)C(=O)N[C@@H](Cc1ccc(O)cc1)C(=O)N[C@@H](CC(N)=O)C(=O)N[C@@H](CC1CCCCC1)C(=O)N[C@H](C(=O)O)C(C)C)”, the isolated yield was found to be 14%. With Ac-FAAVKDTILQLNLKEYNLV-OH, the isolated yield came to 17%.

On to “Ac-KKKFNDCKDIILQMNLREYN[Cha]V-OH (SMILES CC[C@H](C)[C@H](NC(=O)[C@H](CC(=O)O)NC(=O)[C@H](CCCCN)NC(=O)[C@H](CS)NC(=O)[C@H](CC(=O)O)NC(=O)[C@H](CC(N)=O)NC(=O)[C@H](Cc1ccccc1)NC(=O)[C@H](CCCCN)NC(=O)[C@H](CCCCN)NC(=O)[C@H](CCCCN)NC(C)=O)C(=O)N[C@H](C(=O)N[C@@H](CC(C)C)C(=O)N[C@@H](CCC(N)=O)C(=O)N[C@@H](CCSC)C(=O)N[C@@H](CC(N)=O)C(=O)N[C@@H](CC(C)C)C(=O)N[C@@H](CCCNC(=N)N)C(=O)N[C@@H](CCC(=O)O)C(=O)N[C@@H](Cc1ccc(O)cc1)C(=O)N[C@@H](CC(N)=O)C(=O)N[C@@H](CC1CCCCC1)C(=O)N[C@H](C(=O)O)C(C)C)[C@@H](C)CC)”, for which the isolated yield turned out to be 11%. Consider “Ac-FNDCKDIILQMNLREYN[Cha]V-OH (SMILES CC[C@H](C)[C@H](NC(=O)[C@H](CC(=O)O)NC(=O)[C@H](CCCCN)NC(=O)[C@H](CS)NC(=O)[C@H](CC(=O)O)NC(=O)[C@H](CC(N)=O)NC(=O)[C@H](Cc1ccccc1)NC(C)=O)C(=O)N[C@H](C(=O)N[C@@H](CC(C)C)C(=O)N[C@@H](CCC(N)=O)C(=O)N[C@@H](CCSC)C(=O)N[C@@H](CC(N)=O)C(=O)N[C@@H](CC(C)C)C(=O)N[C@@H](CCCNC(=N)N)C(=O)N[C@@H](CCC(=O)O)C(=O)N[C@@H](Cc1ccc(O)cc1)C(=O)N[C@@H](CC(N)=O)C(=O)N[C@@H](CC1CCCCC1)C(=O)N[C@H](C(=O)O)C(C)C)[C@@H](C)CC)”, for which the isolated yield was determined as 3%. Consider “Ac-FAAVKDTILQLNLKEYN[Cha]V-OH (SMILES CC[C@H](C)[C@H](NC(=O)[C@@H](NC(=O)[C@H](CC(=O)O)NC(=O)[C@H](CCCCN)NC(=O)[C@@H](NC(=O)[C@H](C)NC(=O)[C@H](C)NC(=O)[C@H](Cc1ccccc1)NC(C)=O)C(C)C)[C@@H](C)O)C(=O)N[C@@H](CC(C)C)C(=O)N[C@@H](CCC(N)=O)C(=O)N[C@@H](CC(C)C)C(=O)N[C@@H](CC(N)=O)C(=O)N[C@@H](CC(C)C)C(=O)N[C@@H](CCCCN)C(=O)N[C@@H](CCC(=O)O)C(=O)N[C@@H](Cc1ccc(O)cc1)C(=O)N[C@@H](CC(N)=O)C(=O)N[C@@H](CC1CCCCC1)C(=O)N[C@H](C(=O)O)C(C)C)”, for which the isolated yield came to 7%. Turning to “Ac-KKKFN[Pra]CKD[Lys(N3)]ILQMNLREYNLV-OH (triazole 6-10; SMILES CC[C@H](C)[C@H](NC(=O)[C@@H]1CCCCn2cc(nn2)C[C@H](NC(=O)[C@H](CC(N)=O)NC(=O)[C@H](Cc2ccccc2)NC(=O)[C@H](CCCCN)NC(=O)[C@H](CCCCN)NC(=O)[C@H](CCCCN)NC(C)=O)C(=O)N[C@@H](CS)C(=O)N[C@@H](CCCCN)C(=O)N[C@@H](CC(=O)O)C(=O)N1)C(=O)N[C@@H](CC(C)C)C(=O)N[C@@H](CCC(N)=O)C(=O)N[C@@H](CCSC)C(=O)N[C@@H](CC(N)=O)C(=O)N[C@@H](CC(C)C)C(=O)N[C@@H](CCCNC(=N)N)C(=O)N[C@@H](CCC(=O)O)C(=O)N[C@@H](Cc1ccc(O)cc1)C(=O)N[C@@H](CC(N)=O)C(=O)N[C@@H](CC(C)C)C(=O)N[C@H](C(=O)O)C(C)C)”, the isolated yield was 10%.

With Ac-FNDCKDIILQMNLREYNLV-OH, the isolated yield was determined as 7%.
